Measured values published in patent US20210402011A1, “A COMPOUND FOR THE DETECTION OF HNO IN BIOLOGICAL SYSTEMS” (COUNCIL. OF SCIENTIFIC AND INDUSTRIAL RESEARCH, priority 2016, published 2021).

Assay: Fluorescence emission studies for HNO detection in aq. PBS buffer-CH3CN
Method: The spectroscopic properties of ER-HNO in aq. PBS buffer medium under physiological pH medium. No significant difference is observed in the electronic spectra of ER-HNO and ER-S. In order to check the response of ER-HNO probe (10 uM) with in presence of 20 mole equivalent of various ROS and RNS (HNO, HOCl, H2O2, —OH, TBHP, NO3^−, NO2^−, benzoyl peroxide, S^2− and ascorbate) emission spectra are recorded in aq. […] A turn ON emission response is observed for probe ER-HNO, only in presence of HNO with λEms^Max=580 nm (λExt=530 nm). Moreover, no significant changes are observed in presence of different anionic, cationic as well as biothiols under identical experimental condition. The effects of pH on emission spectrum of probe ER-HNO is also investigated. […] Therefore, to explore the bio analytical application, all the studies are carried out at physiological pH medium.
An enhancement in emission signal are observed at λMax=586 nm (Φ=0.105, for λExt=530 nm) with gradual increasing [HNO] (FIG. 1B). A good linearity is observed between emission intensity and concentration of HNO in the range of 2-15 uM, with a lower detection limit of 2 μM. […] PBS buffer medium.
Stock solution of probe ER-HNO (1×10^−4M) was prepared in HPLC grade acetonitrile. All the analytes stock solution (1×10^−2M) was prepared in aqueous HEPES buffer (10 mM) medium at pH 7.2. 500 μL of this stock solution of probe ER-HNO was added to 4.5 ml of PBS (10 mM) aqueous buffer medium having solution pH 7.2 to make the effective ER-HNO concentration of (1×10^−5) M. This solution was used for all the photophysical studies. All the photophysical studies were performed in aq. PBS: CH3CN medium (9:1, v/v) at pH7.2. All emission studies were done using λExt=530 nm with an emission slit width of 2/2 nm, unless and otherwise mentioned.

[1] = aq. PBS buffer, physiological pH

## (E)-4-(2-(5,5-difluoro-1,7,9-trimethyl-10-phenyl-5H-5l4,6l4-dipyrrolo[1,2-c:2′,1′-f][1,3,2]diazaborinin-3-yl)vinyl)phenyl 2-(diphenylphosphanyl)benzoate [ER-HNO]
[1]
  linear range of emission intensity vs concentration of HNO: 2 to 15 µM
  lower detection limit for HNO: 2 µM
λExt=530 nm, aq-PBS buffer medium, no HNO
  emission quantum yield Φ, probe itself: 0.002
λExt=530 nm, λMax=586 nm, with HNO
  emission quantum yield Φ with increasing [HNO]: 0.105
